Results are given in words; binding and its absence hold for the method and conditions named. In cells and extracts the contact can be indirect. Some entries that bind do so weakly or less than the wild type. Where a sequence is shown, tags or fusion partners need not be part of it.
target: T1, Miz-1/GFP (Myc-interacting zinc finger protein 1) (UniProt Q13105); test: co-IP; Cos-1 cells co-transfected with Miz-1/GFP and Arnt/Flag variants; whole cell extract (25 mM Hepes, 100 mM NaCl, 5 mM EDTA, 0.5% Triton, 20% glycerol); IP with anti-GFP on Protein G agarose overnight at 4°C, immunoblot with anti-Flag
T1 sequence: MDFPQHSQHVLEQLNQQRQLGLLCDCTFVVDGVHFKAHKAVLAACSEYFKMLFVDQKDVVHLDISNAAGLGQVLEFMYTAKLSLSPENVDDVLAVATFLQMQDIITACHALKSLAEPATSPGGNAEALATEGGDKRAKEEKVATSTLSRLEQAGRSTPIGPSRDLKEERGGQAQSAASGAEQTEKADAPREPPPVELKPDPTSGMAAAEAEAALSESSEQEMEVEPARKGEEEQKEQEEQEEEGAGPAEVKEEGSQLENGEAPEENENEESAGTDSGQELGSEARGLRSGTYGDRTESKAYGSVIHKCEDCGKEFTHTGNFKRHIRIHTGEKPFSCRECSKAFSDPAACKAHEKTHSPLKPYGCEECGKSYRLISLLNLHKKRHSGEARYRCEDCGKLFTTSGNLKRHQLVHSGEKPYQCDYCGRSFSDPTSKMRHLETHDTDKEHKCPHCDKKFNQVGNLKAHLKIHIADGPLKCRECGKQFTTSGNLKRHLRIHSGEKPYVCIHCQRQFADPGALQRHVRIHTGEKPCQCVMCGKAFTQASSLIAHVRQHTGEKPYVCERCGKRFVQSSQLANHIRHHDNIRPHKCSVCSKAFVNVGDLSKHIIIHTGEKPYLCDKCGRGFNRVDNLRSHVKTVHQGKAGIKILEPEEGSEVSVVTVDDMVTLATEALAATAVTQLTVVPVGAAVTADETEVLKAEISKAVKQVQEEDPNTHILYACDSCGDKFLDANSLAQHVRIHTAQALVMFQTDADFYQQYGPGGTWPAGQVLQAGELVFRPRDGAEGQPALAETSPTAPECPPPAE

Amino acid sequences for entries named in this document (tags omitted). A change or cut given only in a name is not applied to a line headed by its entry. Chains listed by the source or under a name are the forms on record and can include a tag or linker.
Arnt/Flag (aryl hydrocarbon receptor nuclear translocator, wild type) (P27540-2, form named): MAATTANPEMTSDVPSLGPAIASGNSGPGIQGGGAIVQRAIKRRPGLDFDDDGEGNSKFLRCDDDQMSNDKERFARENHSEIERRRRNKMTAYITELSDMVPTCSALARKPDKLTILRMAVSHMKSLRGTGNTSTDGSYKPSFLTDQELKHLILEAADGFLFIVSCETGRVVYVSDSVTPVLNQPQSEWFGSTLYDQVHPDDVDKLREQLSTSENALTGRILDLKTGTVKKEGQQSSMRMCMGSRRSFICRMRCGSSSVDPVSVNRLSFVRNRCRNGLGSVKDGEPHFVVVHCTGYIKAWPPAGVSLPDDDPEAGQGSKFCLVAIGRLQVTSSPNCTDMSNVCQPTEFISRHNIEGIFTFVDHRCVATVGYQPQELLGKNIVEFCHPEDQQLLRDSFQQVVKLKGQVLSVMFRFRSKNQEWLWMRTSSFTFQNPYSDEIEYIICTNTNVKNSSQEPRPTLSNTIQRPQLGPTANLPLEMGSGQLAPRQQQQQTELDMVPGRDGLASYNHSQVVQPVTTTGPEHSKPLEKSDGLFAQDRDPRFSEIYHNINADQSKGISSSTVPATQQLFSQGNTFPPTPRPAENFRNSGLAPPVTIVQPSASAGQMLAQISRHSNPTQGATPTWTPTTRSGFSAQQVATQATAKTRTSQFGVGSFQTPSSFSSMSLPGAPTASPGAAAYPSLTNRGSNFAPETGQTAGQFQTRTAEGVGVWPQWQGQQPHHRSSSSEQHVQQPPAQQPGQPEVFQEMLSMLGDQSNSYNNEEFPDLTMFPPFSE
Arnt (L114A/T115D/R118G/S126A)/Flag (P27540-2, form named): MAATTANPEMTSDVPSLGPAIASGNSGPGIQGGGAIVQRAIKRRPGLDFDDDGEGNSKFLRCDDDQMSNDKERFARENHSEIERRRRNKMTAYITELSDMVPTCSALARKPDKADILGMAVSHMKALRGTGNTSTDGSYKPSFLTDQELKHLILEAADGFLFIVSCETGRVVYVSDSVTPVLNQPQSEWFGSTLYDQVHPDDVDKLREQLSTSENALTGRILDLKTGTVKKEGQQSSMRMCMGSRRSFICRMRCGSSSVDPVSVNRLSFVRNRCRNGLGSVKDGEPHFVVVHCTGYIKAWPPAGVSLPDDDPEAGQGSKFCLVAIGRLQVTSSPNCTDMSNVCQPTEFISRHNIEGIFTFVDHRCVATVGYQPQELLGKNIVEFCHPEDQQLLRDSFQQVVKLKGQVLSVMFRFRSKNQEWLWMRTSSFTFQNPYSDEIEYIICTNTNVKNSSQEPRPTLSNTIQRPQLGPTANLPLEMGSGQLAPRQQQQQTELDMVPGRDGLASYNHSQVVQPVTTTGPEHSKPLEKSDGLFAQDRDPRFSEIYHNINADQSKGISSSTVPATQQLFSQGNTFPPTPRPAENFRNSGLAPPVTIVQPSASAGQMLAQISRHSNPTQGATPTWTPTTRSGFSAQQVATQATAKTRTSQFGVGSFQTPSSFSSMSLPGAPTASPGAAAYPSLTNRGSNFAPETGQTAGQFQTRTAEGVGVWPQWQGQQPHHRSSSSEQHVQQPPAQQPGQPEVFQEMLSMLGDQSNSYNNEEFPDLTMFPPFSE
Arnt (T115D/S126A)/Flag (P27540-2, form named): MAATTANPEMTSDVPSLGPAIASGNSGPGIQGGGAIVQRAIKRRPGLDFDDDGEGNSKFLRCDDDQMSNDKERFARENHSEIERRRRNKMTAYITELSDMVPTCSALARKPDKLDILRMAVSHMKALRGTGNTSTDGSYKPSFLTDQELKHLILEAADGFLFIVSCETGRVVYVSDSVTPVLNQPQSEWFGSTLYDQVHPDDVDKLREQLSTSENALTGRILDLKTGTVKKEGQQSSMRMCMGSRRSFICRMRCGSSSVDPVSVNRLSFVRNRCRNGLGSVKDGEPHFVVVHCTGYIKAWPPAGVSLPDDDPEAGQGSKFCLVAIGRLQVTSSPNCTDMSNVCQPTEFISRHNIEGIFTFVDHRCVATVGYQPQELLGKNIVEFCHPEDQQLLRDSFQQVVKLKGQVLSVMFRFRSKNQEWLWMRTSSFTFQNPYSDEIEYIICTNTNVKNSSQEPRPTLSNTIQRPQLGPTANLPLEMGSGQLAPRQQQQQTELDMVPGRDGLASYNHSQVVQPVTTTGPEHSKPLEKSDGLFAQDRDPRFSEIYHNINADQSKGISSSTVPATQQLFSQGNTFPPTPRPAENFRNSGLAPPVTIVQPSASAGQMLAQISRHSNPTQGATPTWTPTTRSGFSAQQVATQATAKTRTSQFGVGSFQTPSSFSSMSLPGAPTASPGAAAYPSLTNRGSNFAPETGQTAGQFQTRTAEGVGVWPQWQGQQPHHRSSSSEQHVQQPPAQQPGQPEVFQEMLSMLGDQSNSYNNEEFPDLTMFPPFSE

Row | Substance | binding
1 | Arnt/Flag (aryl hydrocarbon receptor nuclear translocator, wild type) (from UniProt P27540-2 1-774) | binds
2 | Arnt (L114A/T115D/R118G/S126A)/Flag (from UniProt P27540-2 1-774) | no binding
3 | Arnt (T115D/S126A)/Flag (from UniProt P27540-2 1-774) | binds weakly
